Measured values as given in patent US20120195909A1 (BIONOVION HOLDING B V, published 2012).
Results are given in words; binding and its absence hold for the method and conditions named. Some binding calls cover weakened binding; strength is not graded here.

The chains behind the UniProt entries cited, without tags or fusion partners. Residues count along the entry.
UniProt O75888, residues 110-250: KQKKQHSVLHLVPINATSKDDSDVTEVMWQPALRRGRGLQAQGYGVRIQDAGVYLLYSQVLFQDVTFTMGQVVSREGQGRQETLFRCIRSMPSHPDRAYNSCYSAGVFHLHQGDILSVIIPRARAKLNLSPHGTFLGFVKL

Assays:
[1] = target: FLAG-hAPRIL (secreted form, supernatant of 293T cells transfected with pCR3-hAPRIL) (human) (UniProt O75888); assay: ELISA, FLAG-hAPRIL captured by coated anti-FLAG antibody, purified antibody titrated
[2] = target: FLAG-hAPRIL (secreted form, supernatant of 293T cells transfected with pCR3-hAPRIL) (human) (UniProt O75888); assay: blocking ELISA, FLAG-hAPRIL pre-incubated with titrated antibody, binding to coated TACI-Fc detected with anti-FLAG
[3] = target: FLAG-hAPRIL (secreted form, supernatant of 293T cells transfected with pCR3-hAPRIL) (human) (UniProt O75888); assay: blocking ELISA, FLAG-APRIL supernatant pre-mixed with titrated antibody, binding to BCMA-Fc coated at 1 µg/ml detected with anti-Flag-HRP [right graph]
[4] = target: FLAG-hAPRIL (secreted form, supernatant of 293T cells transfected with pCR3-hAPRIL) (human) (UniProt O75888); assay: blocking ELISA, FLAG-hAPRIL pre-incubated with hybridoma supernatant, binding to adsorbed BCMA-Fc detected with anti-FLAG
[5] = target: FLAG-hAPRIL (secreted form, supernatant of 293T cells transfected with pCR3-hAPRIL) (human) (UniProt O75888); assay: blocking ELISA, FLAG-APRIL supernatant pre-mixed with titrated antibody, binding to coated TACI-Fc (sheet: coated at 1 µg/ml) detected with anti-Flag-HRP [left graph]
[6] = target: FLAG-hAPRIL (secreted form, supernatant of 293T cells transfected with pCR3-hAPRIL) (human) (UniProt O75888); assay: blocking ELISA, FLAG-hAPRIL pre-incubated with titrated antibody, binding to coated BCMA-Fc detected with anti-FLAG
[7] = target: FLAG-hAPRIL (secreted form, supernatant of 293T cells transfected with pCR3-hAPRIL) (human) (UniProt O75888); assay: ELISA, FLAG-hAPRIL captured by coated anti-FLAG antibody, hybridoma supernatant titrated neat to 1:128
[8] = target: FLAG-hAPRIL (secreted form, supernatant of 293T cells transfected with pCR3-hAPRIL) (human) (UniProt O75888); assay: ELISA, purified antibody, FLAG-hAPRIL captured by anti-FLAG antibody
[9] = target: FLAG-hAPRIL (secreted form, supernatant of 293T cells transfected with pCR3-hAPRIL) (human) (UniProt O75888); assay: blocking ELISA, FLAG-APRIL supernatant pre-mixed with titrated antibody, binding to BCMA-Fc coated at 1 µg/ml detected with anti-Flag-HRP [left graph]
[10] = target: FLAG-hAPRIL (secreted form, supernatant of 293T cells transfected with pCR3-hAPRIL) (human) (UniProt O75888); assay: blocking ELISA, FLAG-APRIL supernatant pre-mixed with titrated antibody, binding to coated TACI-Fc (sheet: coated at 1 µg/ml) detected with anti-Flag-HRP [right graph]
[11] = target: FLAG-hAPRIL (secreted form, supernatant of 293T cells transfected with pCR3-hAPRIL) (human) (UniProt O75888); assay: ELISA, hybridoma supernatant, FLAG-hAPRIL captured by anti-FLAG antibody

Measured: binding

B1: hAPRIL.01A (antibody, IgG1, V domains shown)
VH: EVQLQQSGPELVKPGASVKMSCKASGYTFTSYVMHWVKQKPGQGLEWIGYINPYNDAPKYNEKFKGKATVTSDKSSGTAYMELSSLTSEDSAVYYCARGLGYALYYAMDYWGQGTSVTVSS
VL: DIVMTQSQKFKSTSVGDRVSVTCKASQNVGNNVAWYQQKAGQSPKALISSASNRDSGVPDRFTGSGSGTDFTLTISNVQSEDLADYFCQQYNIYPFTFGSGTELEIK
notes: Mouse antibody from a hybridoma, IgG1, kappa
binds: [1] | [2] | [3] | [4] | [5] | [6] | [7] | [8] | [9] | [10] | [11]
